Laboratory results taken from US20040002078.

Biological target: p53 wild type (Homo sapiens) (UniProt P04637)
Assay: EMSA
Settings: protein in a lysate after overexpression; label: 5' DIG on SEQ:3 strand; variant of GADD45 promoter element duplex (33P)

GTACAGAACATGTCTAAGCATGCTGGGGAC (double strand) [DIGGADD45A/GADD45B duplex]
binding result: binds

The exact form of at least one protein or probe is not confirmed. Where cells or extracts were used, other partners may take part.
